These are yes or no findings as the source states them, for the method shown. In cells and extracts the contact can be indirect. Some entries that bind do so weakly or less than the wild type. Where a sequence is shown, tags or fusion partners need not be part of it.
Biological target: T1, Cavin-2-mEGFP (UniProt O95810)
T1 sequence: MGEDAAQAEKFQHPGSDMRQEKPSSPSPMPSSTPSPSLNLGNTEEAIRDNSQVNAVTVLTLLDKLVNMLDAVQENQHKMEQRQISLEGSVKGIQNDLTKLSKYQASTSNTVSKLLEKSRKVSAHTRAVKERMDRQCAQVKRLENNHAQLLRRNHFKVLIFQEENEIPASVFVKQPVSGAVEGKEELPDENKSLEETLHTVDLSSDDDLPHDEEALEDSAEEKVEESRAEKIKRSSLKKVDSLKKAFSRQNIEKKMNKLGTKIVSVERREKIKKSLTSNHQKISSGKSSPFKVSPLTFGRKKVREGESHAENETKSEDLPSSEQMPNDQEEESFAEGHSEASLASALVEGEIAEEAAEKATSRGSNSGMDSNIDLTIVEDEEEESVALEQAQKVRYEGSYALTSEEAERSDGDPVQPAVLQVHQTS
Assay: co-IP; Cavin-2-GFP or GFP expressed in HPMEC-ST1.6R; immunoprecipitation with anti-GFP antibody from whole cell lysate at the basal state; RIPA buffer (10 mM Tris-HCl, 1 mM EDTA, 1% Nonidet P-40, 0.1% sodium deoxycholate, 140 mM NaCl); blots for eNOS, Caveolin-1 and GFP

Protein sequences, listed by entry. Tags and fused reporters are not part of them.
UniProt Q03135: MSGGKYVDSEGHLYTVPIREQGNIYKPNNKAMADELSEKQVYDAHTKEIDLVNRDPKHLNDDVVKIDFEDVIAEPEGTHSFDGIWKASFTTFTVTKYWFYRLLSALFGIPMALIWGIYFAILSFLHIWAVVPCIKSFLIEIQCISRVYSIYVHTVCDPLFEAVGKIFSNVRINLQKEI

For Caveolin-1 (from UniProt Q03135 1-178), the binding was “binds”.
